The values are deposited in ChEMBL (CHEMBL3988442, “University of Dundee, Small-Polar-MMV Screening Library” (2021)).

A: 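Whole-cell assay for inhibitors of Mycobacterium tuberculosis growth, labelled Cornell in the record; the read-out is not stated. The concentration is filed as 10 mM, unlikely as a test dose, so the dose is not known. The record gives no direction; compounds strong in two other growth screens of this library score well above the rest, so higher reads as stronger inhibition. Of about 53,000 compounds tested this way, about 900 (1.7%) reached 50% or more in at least one test.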
B: 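Assay on Mycobacterium tuberculosis, filed only as a heat shock assay from Cornell; the read-out is not stated. The concentration is filed as 10 mM, unlikely as a test dose, so the dose is not known. Direction is inferred from retests: higher values go with stronger inhibition. About 69,000 compounds were tested under these conditions; 1.4% (about 930) showed 50% or more at least once.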

Values are the deposited “Percent Effect”, in %. The record does not define 0% and 100%; most values in the screen are far below 50% and negative numbers occur (in some assays of this library far below -100). Compounds were drawn at random from those tested, without regard to their results. A dash means the value is not listed here; it may have been measured.

Compound	A	B
O=C(c1cnn2c1OCCC2)N1CCC2(CC1)OCCO2	9.218	2.27
Fc1cccc(CN2CCC(c3n[nH]c4ncccc34)CC2)c1F	12.02	-15.12
CCCc1n[nH]cc1C(=O)N1CCC(c2nccn2CCOC)CC1	-8.759	-8.859
Cc1noc(CCNC(=O)NCc2ccc(OC3CCCC3)cc2)n1	-22.59	-11.52
CCC[C@H]1CN(S(C)(=O)=O)C[C@@H]1NC(=O)CCOCC	-8.921	4.562
COc1cc(NC(=O)c2ccccc2F)c(C(=O)N(C)C)cc1OC	5.935	-11.03
Cc1ccc(C(=O)N2CC[C@@H](N(C)C)[C@@H]2Cc2cnn(C)c2)cn1.O=C(O)C(F)(F)F.O=C(O)C(F)(F)F	24.94	0.1642
O=C(O)C(F)(F)F.[H][C@]12CN(Cc3csc(C)n3)C(=O)[C@@]1([H])CN(c1ncc(C)cn1)C2	-14.91	6.791
OC1(CN2CCCC2)CCCN(Cc2c[nH]c(CC3CCCC3)n2)C1 (configuration not stated)	40.87	109.3
CC(C)S(=O)(=O)NCC1CCCN(C(=O)c2ccc3c(c2)OCCO3)C1 (configuration not stated)	-2.057	-4.44
Cc1nonc1-c1nc(C(C)C)nn1-c1ccc2c(c1)OCO2	26.12	2.39
CNC(=O)CN(C)C(=O)c1cc(Cl)c(I)cc1OC	20.45	12.68
CNC(=O)c1ccc(C(=O)N2CCC(Nc3cccnn3)CC2)cn1	-	7.334
CCC(Nc1cccc(Oc2ccc(C#N)cc2)c1)C(N)=O (configuration not stated)	-	-4.891
CN(C)Cc1nnc(C2CCCN(Cc3ccc(Cl)s3)C2)n1C (configuration not stated)	16.37	-8.173
Cc1cc(F)ccc1OC1(C(=O)O)CCN(Cc2ccncc2)CC1	23.63	-17.24
O=C(CCc1nccs1)N1CCN(c2ccccc2F)CC1	-15.79	12.27
c1cc2n(n1)CC(CNCc1ccc(OCC3CC3)nc1)CN2 (configuration not stated)	0.5271	12.32
COC(=O)Cn1c(=O)nc2n1C(=O)N(c1cccc(Cl)c1)C2	4.788	-4.333
Cc1cc2n(n1)CC(CNC1CCN(C3CC3)CC1)CN2 (configuration not stated)	-	30.98
O=C(NCC1CC2(CO1)CN(Cc1cccs1)C2)C1CCC1.O=C(O)C(F)(F)F (configuration not stated)	-23.96	-27.85
Cc1nc2ccccc2nc1CN1CCCC1Cn1cncn1 (configuration not stated)	-	3.442
COC(C)(C)c1noc(C2(C#N)CCCCC2)n1	-10.35	6.1
COc1ccc(Cc2ncc3c(n2)CN(C(=O)CO)C3)cc1	-	-1.077
COc1ncc(NCc2cccc(C#N)c2)cc1C(N)=O	1.614	3.54
Cc1cnn(C2CN(CC(=O)N(C)Cc3ccc(C)o3)C2)c1	-18.82	-35.14
Cc1nn(C)c(C)c1NC(=O)CNc1ccc(F)c(C(F)(F)F)c1	28.83	-10.16
Nc1nnnn1NCc1cccc(Cl)c1Cl	-36.58	-4.563
O=C1CCCN1Cc1ncn2c1CN(C(=O)C1CC=CC1)CCC2	-	-26.46
CC(=O)NCCC(=O)NC1(c2ccc(Cl)c(Cl)c2)CC1	-12.79	11.11
O=C(NC1CCS(=O)(=O)C1)c1sccc1-c1ccc(F)cc1 (configuration not stated)	23.17	-9.617
O=C(CC1CCc2ccccc21)NCCSc1cnn[nH]1 (configuration not stated)	-47.93	-23.97
CC(C)NC(=O)C1CCc2nnc(CNC(=O)C3CC3)n21 (configuration not stated)	-	-18.49
CC(=O)N1CCCN(C(=O)Cc2ccc3c(c2)OCO3)CC1	18.88	-2.702
Cn1cnnc1C1CCN(c2nc3ccccc3o2)CC1	-	-33.51
CSCCC(C)NC(=O)CCN1C(=O)CCc2cc(F)ccc21 (configuration not stated)	18.73	4.701
Oc1cc(C2CCCCN2Cc2cccs2)nc(-c2ccncc2)n1 (configuration not stated)	49.98	-5.43
Cc1nc(N2CCC3(CCCN(CCO)C3=O)C2)c2sccc2n1 (configuration not stated)	-6.348	4.967
Cn1cccc1CNC(=O)CCCc1nnc2ccccn12	-	20.56
COC[C@@H]1CCC[C@@]12CN(C(=O)C1CCOCC1)CCO2	-1.274	16.88
Cn1nc(CN2CCCC2)c2c1CN(C(=O)c1ccncc1F)CC2	16.82	-9.939
COc1ccccc1CN(C)Cc1ccnc(C2CCCO2)n1 (configuration not stated)	9.058	-0.855
CCn1ncc2c(C(F)(F)F)cc(-c3ccn(C)n3)nc21	-	-0.4295
COc1ccc(C(=O)C2CCCN(Cc3ccon3)C2)c(OC)c1 (configuration not stated)	25.75	6.199
OCc1ccncc1NCc1cnc(-c2ccccn2)s1	-23.15	-19.1
CCOc1ccnc(N2CCN(C(=O)c3cc[nH]n3)CC2)n1	-	-17.47
O=C(c1cccnc1)N1CCC(Oc2cccc(C(F)(F)F)c2)CC1	35.88	-15.89
Cn1cccc1C(=O)COc1ccc(S(N)(=O)=O)cc1	-26.32	0.7665
CCOC(=O)CN1CCC2(CCCN(CCOc3ccccc3)C2)C1 (configuration not stated)	33.79	-6.522
CN1CCCN(C(=O)NCCNc2cnccn2)CC1	-13.13	0.6122
CC(C)c1cc(C(=O)N(C)C(C)c2nccs2)no1 (configuration not stated)	-	-3.501
CN1CC2(COCCN(c3ncccn3)C2)OCC1=O (configuration not stated)	14.47	1.546
CC1CCCN(CCNC(=O)c2ccn(-c3ccccc3)n2)C1 (configuration not stated)	-25.07	-14.3
CCCN(CCOC)c1nc(C)nc2sccc12	-32.06	-2.132
COc1ccccc1C(O)CNc1nccc(-c2ccc(C)nc2C)n1 (configuration not stated)	33.77	2.995
Cn1cc(-c2nc(CN3CCN(CCO)CC3)cs2)cn1	-	7.212
COC1COC2(CCN(C(=O)c3ncccn3)CC2)C1 (configuration not stated)	-40.53	-20.33
Cc1c(NC(=O)NCC(C)N2CCOCC2)cccc1OC(F)F (configuration not stated)	4.801	18.12
c1cncc(-c2noc(CN3CCCCC3Cn3cccn3)n2)c1 (configuration not stated)	10.25	-13.42
CNc1snc(C)c1C(=O)N1CCCC(n2nc(C)cc2C)C1 (configuration not stated)	-	-8.979
Cn1ccc(C(=O)N2CCC3(CC2)CC(Nc2cnccn2)CO3)n1 (configuration not stated)	-22.93	22.34
CCn1cnnc1CNC(=O)N1CCC(OCc2ccccc2)CC1	-	6.384
CN(Cc1nc2ccccc2n1C)C(=O)CCc1cscn1	3.18	-5.071
CNc1ncccc1C(=O)N1CCC2(CCN(C)C2)CC1	32.03	-24.12
O=C(CCNCc1cccc(O)c1)N1CCc2sccc2C1	-	0.8064
CCS(=O)(=O)Nc1ccn(Cc2cccc(Cl)c2)n1	18.79	-10.02
Cc1ccc(C(=O)N2CC(C)(C)[C@@](C)(O)C2)cc1N1CCNC1=O	-2.205	-13.98
O=C(O)C(F)(F)F.O=C(O)C(F)(F)F.O=C(O)C(F)(F)F.c1cc(CNCC2OCCc3cn(CC4CCOCC4)nc32)ccn1 (configuration not stated)	-7.498	-1.94
CCN(CC1CCOCC1)C(=O)CCNC(=O)c1ccccc1F	-68.77	23.72
CCOc1nn(CC)cc1-c1nnc(SCc2cccnc2)n1CC	42.38	4.765
COCC(C)NC(=O)CN1CCC(C)CC1 (configuration not stated)	2.016	0.859
Cc1nc(C2CCCN2C(=O)CCn2cncn2)no1 (configuration not stated)	-	-21.39

7 of the entries, repeated:

Result for CN(C)Cc1nnc(C2CCCN(Cc3ccc(Cl)s3)C2)n1C (configuration not stated) was A: 16.37%; B: -8.173%.
Result for Cn1cc(-c2nc(CN3CCN(CCO)CC3)cs2)cn1 was B: 7.212%.
Result for CCC(Nc1cccc(Oc2ccc(C#N)cc2)c1)C(N)=O (configuration not stated) was B: -4.891%.
Result for CC(=O)N1CCCN(C(=O)Cc2ccc3c(c2)OCO3)CC1 was A: 18.88%; B: -2.702%.
Result for c1cc2n(n1)CC(CNCc1ccc(OCC3CC3)nc1)CN2 (configuration not stated) was A: 0.5271%; B: 12.32%.
Result for CSCCC(C)NC(=O)CCN1C(=O)CCc2cc(F)ccc21 (configuration not stated) was A: 18.73%; B: 4.701%.
Result for CC1CCCN(CCNC(=O)c2ccn(-c3ccccc3)n2)C1 (configuration not stated) was A: -25.07%; B: -14.3%.